Experimental data published in PubChem BioAssay AID493014 (National Center for Advancing Translational Sciences (NCATS), 2011).
The whole screen tested about 340,000 compounds, of which about 170 (0.05%) were called active. The shares of active, inactive and inconclusive entries below differ from those in the screen. The call rests on the fitted dose curve; in most records, active means well fitted inhibition curve with a large enough effect in the signal ratio, with a control signal flat (not every such curve was filed as active); inconclusive means small, poorly fitted or top-dose-only effect, or effect the other way, or a change in a side signal; inactive means flat fitted curve, though single readings scatter; the % refers to the signal ratio. A potency beside an inconclusive call is a rough fit, not a confirmed value.

test: qHTS Assay to Find Inhibitors of Chronic Active B-Cell Receptor Signaling; settings: ABC-DLBCL IkBa-CBG/CBR reporter, luminescence ratio (green luciferase fused to IkBa over red control in TMD8 lymphoma cells), 4 h; activity change, negative = inhibition: at 46.1 µM (top of the series) unless noted;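 on activity change, negative = inhibition: plate controls were basal doxycycline-induced cells for no effect and cells given 10 µM MG132 for full effect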
Procedure, shortened: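 Doxycycline induced both beetle luciferases in TMD8 lymphoma cells; IKK-driven degradation limits the IkappaBalpha-fused green signal, while red luminescence normalises for cell number and nonspecific effects. Compounds tested up to 46 uM, 4 hrs.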
Potency means the concentration at half of the fitted maximal effect.

Structure (SMILES) | activity change, negative = inhibition | Potency
CS(=O)(=O)N1CCc2cc(C(=O)O)ccc21 | inactive: -0.354% | 
CCC(C)C(NC(N)=O)C(=O)Nc1ccc(C(=O)OC)cc1 (stereo not given) | inconclusive: 1.93% | 
Cc1ccc(Nc2nc(CSc3nnc(-c4ccccc4C)n3C)cs2)cc1 | inconclusive: -11% | 
COCCn1c(=S)[nH]c2cc(OC)c(OC)cc2c1=O |  | inconclusive: 2.91 µM [rising, full curve, poor fit]
CCOC(=O)c1cc(-c2ccc(N3CCOCC3)cc2)nn1-c1ccc(F)cc1F | inactive: -14.9% | 
COc1ccccc1-c1noc2ncnc(Nc3ccccc3C)c12 | inactive: 10.2% | 
COc1ccc(-c2noc(C3CCCN(C(=O)c4c(F)cccc4F)C3)n2)cc1OC (stereo not given) | inconclusive: -1.03% | 
O=C(c1ccc(C(F)(F)F)cc1)C1CCCN(C(=O)Cn2cncn2)C1 (stereo not given) | inactive: 0.705% | 
CCOc1cc(C=C2C(=O)c3ccccc3C2=O)ccc1OCC(=O)Nc1ccc(C)cc1 | inconclusive: 15.1% | 
CC(/C=N/NC(=O)NC1CCCCC1)=C\c1ccccc1 | inconclusive: 4.84% | 
Cc1cc(C)cc(NS(=O)(=O)c2cnc(Cl)c(Cl)c2)c1 | inactive: 19.7% | 
O=C(CNC(=O)c1ccc(Cl)cc1)OCCCOC(=O)CNC(=O)c1ccc(Cl)cc1 | inconclusive: 2.01% | 
CCOc1ccc(C(C)NC(=O)Cc2ccccc2)cc1OCC (stereo not given) | inactive: 1.68% | 
COc1cc(C(C)=O)ccc1OCC(O)CN1CCN(c2ccc(C)c(C)c2)CC1 (stereo not given) | inactive: -2.58% | 
CNC(=O)Nc1nnc(C(C)(C)C)s1 | inactive: -1.22% | 
COc1ccc(-c2nc(CSCC(=O)NC3CCCc4ccccc43)c(C)o2)cc1OC (stereo not given) | inconclusive: -13.4% | 
CN1CCN(CCn2c(=S)[nH]c3ccccc3c2=O)CC1 | inactive: 3.78% | 
COc1ccc(OC)c(-c2nnc3n2N=C(c2ccc(OC)c(OC)c2)CS3)c1 |  | inconclusive: 0.58 µM [falling, full curve, poor fit]
Cn1c(NN)nc2sc3c(c2c1=O)CCC3 | inconclusive: 0.744% | 
CCOc1ccc(CC(=O)OCN2C(=O)c3ccccc3C2=O)cc1 | inconclusive: 0.781% | 
CCCc1cc(=O)[nH]c(SCC(=O)c2c(N)n(C)c(=O)n(C)c2=O)n1 | inconclusive: -2.16% | 
COc1ccc(-n2c(SCC(=O)Nc3cc(C)on3)nc3c(c2=O)SCC3)cc1 | inactive: -8.85% | 
Cc1noc(C)c1C(=O)Nc1sc2c(c1C(N)=O)CCC2 | inconclusive: 1.21% | 
COc1cc(OC)cc(C(=O)NC(C)CNc2ccc(Cl)cc2[N+](=O)[O-])c1 (stereo not given) |  | inconclusive: 35.5 µM [falling, partial curve, poor fit]
COc1ccccc1N1CCN(CCCNC(=O)C2CCCN(c3ncnc4c3nc3n4CCCCC3)C2)CC1 (stereo not given) | inactive: 0.152% | 
CCCN1CCN(C(=O)C(C)n2nc(C)c3sc4ccccc4c3c2=O)CC1 (stereo not given) | inactive: -1.02% | 
Oc1ccc(-c2ccccc2)cc1CN1CCCCCC1 | inconclusive: -0.148% | 

Structure (SMILES) | activity change, negative = inhibition | Potency
CCOc1ccccc1NC(=O)Nc1ccc2c(c1)CCC2 |  | inconclusive: 25.1 µM [falling, single point]
CCN(CC)C(=O)N1CCN(S(=O)(=O)c2c(C)cc(C)cc2C)CC1 | inactive: 1% | 
COc1cccc(NS(=O)(=O)c2ccc3c(c2)NC(=O)C(C)S3)c1 (stereo not given) | inconclusive: 1.13% | 
CCOC(=O)c1ccc(Oc2nc(C)nc3c2oc2ccccc23)cc1 | inconclusive: -1.38% | 
Cc1nn(C)cc1C(C)NC(=O)c1cc(COc2cccc3cnccc23)on1 (stereo not given) |  | inconclusive: 20 µM [falling, partial curve, poor fit]
COC(=O)c1cc(NC(=O)CN(c2ccccc2OC)S(=O)(=O)c2ccccc2)ccc1Cl | inconclusive: -8.82% | 
Cn1nnnc1SCC(=O)Nc1ccc(Oc2ccc(Cl)cc2)cc1 | inactive: -0.976% | 
COC(=O)c1ccc(NC(=O)C(=O)c2cccn2C)cc1 |  | inconclusive: 35.5 µM [rising, single point]
Cc1ccc(C)c(NC(=O)COC(=O)c2cc(=O)c3ccccc3o2)c1 | inconclusive: 18.3% | 
COc1ccc(S(=O)(=O)NCCSCc2ccco2)cc1Cl | inconclusive: -1.09% | 
CCN(CC)CCNC(=O)/C(=C/c1cn(C)c2ccccc12)NC(=O)c1ccc(OC)c(OC)c1 |  | inconclusive: 8.91 µM [falling, partial curve, poor fit]
CC1(C)CCc2nc(SCc3ccccc3)c(C#N)cc2C1 |  | inconclusive: 10.3 µM [rising, partial curve, poor fit]
C/C(CC1CC(C)(C)OC1=O)=N/Nc1nc(-c2ccccc2)cs1 (stereo not given) |  | inconclusive: 29.1 µM [falling, single point]
CC(c1ccco1)N(C(=O)c1ccc(Cl)s1)c1ccccn1 (stereo not given) | inconclusive: 3.63% | 
Cc1cc(C)cc(OCC(=O)Nc2ccc(F)cc2)c1 |  | inconclusive: 22.4 µM [falling, single point]
COc1cccc(N2CCN(CC(=O)Nc3nc(C)c(C(=O)N(C)C)s3)CC2)c1 | inconclusive: 1.53% | 
CC(C)CNC(=O)C(=O)Nc1ccc2c(c1)N(S(=O)(=O)c1cccs1)CCC2 | inconclusive: -11.5% | 
Cc1[nH]c2ccccc2c1SCc1nnc(SCc2ccccc2)n1C | inconclusive: 5.13% | 
CC(C)CNC(C(=O)Nc1ccc([N+](=O)[O-])cc1Br)c1ccccc1 (stereo not given) | inconclusive: 10.9% | 
O=C(NCN1CCN(CCO)CC1)c1cnccn1 | inconclusive: 8.96% | 
Cn1cc(CN2CCCC(C(=O)Nc3cccc(-n4cccn4)c3)C2)cn1 (stereo not given) | inactive: 1.49% | 
COc1ccc(OC)c(C(=O)c2coc3ccc(OC)cc23)c1 |  | inconclusive: 20 µM [falling, partial curve, poor fit]
C=CCn1c(Cc2csc(N)n2)nnc1SCC(=O)OCC | inactive: -1.94% | 
CCCC1(c2ccccc2)NC(=O)N(CC(=O)NCc2ccc(C)cc2)C1=O (stereo not given) | inconclusive: -8.85% | 
O=c1cc(CN2CCN(Cc3ccc(F)cc3)C(CCO)C2)[nH]c2ccccc12 (stereo not given) | inactive: -1.18% | 
CN(C)CCOC(=O)C12CC3(C)CC(C)(CC(C)(C3)C1)C2 | inconclusive: -4.83% | 
COc1ccc(C(C[N+](=O)[O-])c2c(-c3ccccc3)cc3ccccn23)c(OC)c1 (stereo not given) | inconclusive: 2.99% | 

Arranged by number of heavy atoms (low to high): some entries from above.
Structure (SMILES) | activity change, negative = inhibition | Potency
CN(C)CCOC(=O)C12CC3(C)CC(C)(CC(C)(C3)C1)C2 | inconclusive: -4.83% | 
COc1cc(C(C)=O)ccc1OCC(O)CN1CCN(c2ccc(C)c(C)c2)CC1 (stereo not given) | inactive: -2.58% | 
COC(=O)c1cc(NC(=O)CN(c2ccccc2OC)S(=O)(=O)c2ccccc2)ccc1Cl | inconclusive: -8.82% | 

Additional structures follow.

Structure (SMILES) | activity change, negative = inhibition | Potency
O=C(O)CCCC(=O)Nc1ccn(-c2ccccc2)n1 | inconclusive: 430% | 
Nc1nnc(SCC(=O)NNC(=O)c2ccc([N+](=O)[O-])cc2)s1 | inactive: 1.21% | 
CN(C)c1cc(N/N=C/c2ccc(Cl)cc2)nc(N(C)C)n1 |  | inconclusive: 15.8 µM [rising, single point]
O=C(OCCN1C(=O)c2cccc3c(N4CCOCC4)ccc(c23)C1=O)c1ccccc1Cl | inconclusive: -12% | 
COCCN1CCC(CNCc2cn[nH]c2-c2ccc(C)c(C)c2)C1 (stereo not given) |  | inconclusive: 20 µM [falling, single point]
CCOC(=O)c1c(C)[nH]c(C)c1C(=O)COC(=O)/C=C/c1cccc(F)c1 | inconclusive: 10.7% | 
O=C(CCCCCN1C(=O)c2cccc3cccc(c23)C1=O)NCc1ccco1 |  | inconclusive: 20 µM [falling, partial curve, poor fit]
O=C(OCC(=O)N1CCCc2ccccc21)c1cnc(Cl)c(Cl)c1 | inconclusive: 29.8% | 
CCOc1ccc(C(=O)NCC(=O)OCC(=O)Nc2ccccc2OCC)cc1 | inconclusive: 21.3% | 
Cc1c(C(=O)N2CCc3ccccc3C2)sc2nc(-c3ccccc3)cn12 | inconclusive: -18.7% | 
COC(=O)NCC(C)OC(=O)Nc1cccc(Cl)c1 (stereo not given) | inconclusive: -3.55% | 
CCC(CO)Oc1cc(NCc2cccc(C)c2)c2ncn(C(C)C)c2c1 (stereo not given) | inactive: 0.532% | 
Oc1c(C(c2ccccc2Cl)N2CCC(O)CC2)sc2nc(-c3ccco3)nn12 (stereo not given) |  | inconclusive: 3.98 µM [falling, partial curve, poor fit]
O=C(Nc1ccccc1C(=O)O)c1ccc(Cl)c(S(=O)(=O)N2CCOCC2)c1 |  | inconclusive: 11.2 µM [falling, partial curve]
Cc1ccc(C)c(NC(=O)c2cc(S(=O)(=O)N3CCN(c4cccc(Cl)c4)CC3)ccc2F)c1 | inconclusive: 9.17% | 
CC1CCN(c2ccc3c(c2)S(=O)(=O)c2cccc(C(=O)NCc4cccc(F)c4)c2C3=O)CC1 |  | inconclusive: 3.26 µM [falling, full curve, poor fit]
Cc1ccc(/C=N/Nc2ccc(C(=O)O)cc2)o1 | inconclusive: 259% | 
COc1ccccc1CN(C)C(=O)c1ccccc1SCC(=O)N1CCCC1 | inconclusive: 4.95% | 
CCc1ccc(NC(=O)C2CCC(CNC(=O)[C@@H]3Cc4ccccc4CN3)CC2)cc1 (stereo not given in full) |  | inconclusive: 35.5 µM [falling, single point]
COc1ccccc1NC(=O)CCC(=O)c1ccc(-c2ccccc2)cc1 | inconclusive: 13% | 
CC(=O)N(C)c1ccc(NC(=S)NC(=O)/C=C/c2ccco2)cc1 | inconclusive: -11.7% | 
CC12CC(c3ccccc3O1)C(/C(N)=N/NC(=O)c1ccc(F)cc1)C(=O)N2 (stereo not given) | inconclusive: -22.9% | 
c1ccc2c(SCc3cn4cccnc4n3)ncnc2c1 |  | inconclusive: 17.8 µM [falling, partial curve, poor fit]
CCOC(=O)c1c(-c2ccc(C)o2)csc1NC(=O)CSc1nnnn1-c1ccccc1 | inactive: -5.38% | 
O=C(Nc1nc(-c2ccccc2)cs1)c1ccc2c(c1)S(=O)(=O)c1ccccc1C2=O | inactive: -3.82% | 
C#CCOCCOCCOCCNc1nc(N2CCN(C(=O)CCCCCCCCCCNC(=O)Cn3cc(CCCCCN)nn3)CC2)nc(N2CCN(C(=O)CCCCCCCCCCNC(=O)[C@H](CO)n3cc(CCCSC)nn3)CC2)n1 | inconclusive: 6.59% | 

Not a retest: entries from further up.
Structure (SMILES) | activity change, negative = inhibition | Potency
COC(=O)NCC(C)OC(=O)Nc1cccc(Cl)c1 (stereo not given) | inconclusive: -3.55% | 
CCC(CO)Oc1cc(NCc2cccc(C)c2)c2ncn(C(C)C)c2c1 (stereo not given) | inactive: 0.532% | 
Oc1c(C(c2ccccc2Cl)N2CCC(O)CC2)sc2nc(-c3ccco3)nn12 (stereo not given) |  | inconclusive: 3.98 µM [falling, partial curve, poor fit]
